Results reported in patent US9540424B2 (BRISTOL-MYERS SQUIBB COMPANY, priority 2010, dated 2017).
End groups of sequences in plain letters are not given here.

Columns and labels:
[1] = general procedure: Fmoc solid-phase peptide synthesis; Fmoc-protected PAL-PEG resin (0.34 mmol/g); HCTU/DIEA; details: analytical HPLC
[2] = peptide made by a vendor (peptide synthesis; Fmoc-protected PAL-PEG resin (0.34 mmol/g); HCTU/DIEA); details: whole synthesis, analytical HPLC, scale of the general procedure 0.25 mmol
[3] = oxidative folding step, one disulfide bridge, sequence written open
[4] = whole synthesis, scale of the general procedure 0.25 mmol

## YLYQWLGAPVPYPDPLEPRRE VCELNPDCDELADHIGFQEAYRRFYGPV
[1]; [3]
  final HPLC purity: 99%

## Mal-GSGSGSGSGS-APLEPMYPGDYATPEQMAQYETQLRRYINTLTRPRY-NH2
[2]
  purity (crude or final not stated): 90%

## YLGASVPSPDPLEPT REQCELNPACDELSDQYGLKTAYKRIYGITI
[1]; [3]
  final HPLC purity: 98%

## YLNNGLGAPAPYPDPLEPH REVCELNPNCDELADHIGFQDAYKRIYGTTV
[2]; one disulfide bridge, sequence written open
  purity (crude or final not stated): 96%

## Mal-GSGSGSGSGS-KCNTATCATQRLANFLVRSSNNLGPVLPPTNVGSNTY-NH2
[1]; whole synthesis, scale of the general procedure 0.25 mmol, one disulfide bridge, sequence written open
  final HPLC purity: at least 98%

## Mal-PEG20-APLEPMYPGDYATPEQMAQYETQLRRYINTLTRPRY-NH2
[1]; [4]
  final HPLC purity: at least 91%

## Mal-Ahx-APLEPMYPGDYATPEQMAQYETQLRRYINTLTRPRY-NH2
[1]; [4]
  final HPLC purity: at least 99%
